The record followed here is paper PMC10682194, “Structural insights into ligand recognition and selectivity of the human hydroxycarboxylic acid receptor HCAR2” (Cell Discovery, 2023).

By UniProt entry, the sequences of proteins in these tests, tags left out.
UniProt Q8TDS4: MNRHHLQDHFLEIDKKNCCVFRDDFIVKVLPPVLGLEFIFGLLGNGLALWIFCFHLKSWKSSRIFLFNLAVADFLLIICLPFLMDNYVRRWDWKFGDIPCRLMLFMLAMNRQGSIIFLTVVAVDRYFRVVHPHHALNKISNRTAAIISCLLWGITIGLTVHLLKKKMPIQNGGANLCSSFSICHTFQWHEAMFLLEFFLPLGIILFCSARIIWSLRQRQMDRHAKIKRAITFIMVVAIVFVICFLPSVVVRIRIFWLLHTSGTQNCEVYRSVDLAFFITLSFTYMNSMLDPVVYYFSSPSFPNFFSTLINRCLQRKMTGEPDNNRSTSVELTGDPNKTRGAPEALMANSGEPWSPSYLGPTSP
UniProt P49407: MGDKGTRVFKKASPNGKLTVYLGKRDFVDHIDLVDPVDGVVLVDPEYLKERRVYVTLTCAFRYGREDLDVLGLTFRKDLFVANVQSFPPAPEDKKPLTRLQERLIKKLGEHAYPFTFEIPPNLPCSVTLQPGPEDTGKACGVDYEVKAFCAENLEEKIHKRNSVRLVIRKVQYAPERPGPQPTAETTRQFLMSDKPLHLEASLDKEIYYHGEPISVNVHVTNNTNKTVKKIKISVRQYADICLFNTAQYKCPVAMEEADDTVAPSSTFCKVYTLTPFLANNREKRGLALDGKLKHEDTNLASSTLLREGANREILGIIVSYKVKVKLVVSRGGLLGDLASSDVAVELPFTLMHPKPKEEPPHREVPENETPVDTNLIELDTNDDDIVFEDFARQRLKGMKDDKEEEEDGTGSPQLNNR

This experiment addresses HCAR2-SmBiT (human) (UniProt Q8TDS4). The experiment is described as follows: split reporter; HEK293 co-transfected with HCAR2-SmBiT and LgBiT-β-arrestin1; 10 μM coelenterazine H; different concentrations of niacin, acipimox or MK-6892; 37 °C.

Results are given in words; binding and its absence hold for the method and conditions named. Binding seen in cells or lysates may run through a third protein. Some binding calls cover weakened binding; strength is not graded here.

“LgBiT-β-arrestin1 (from UniProt P49407 1-418)”: the binding result is listed as “binds”.
